Results as given in patent US20130261165A1, “PREVENTION AND TREATMENT OF DISEASES CHARACTERIZED BY MESENCEPHALIC DOPAMINERGIC NEURON CELL DEATH” (THE MCLEAN HOSPITAL CORPORATION, priority 2010, published 2013).

Tests used:
[1] = test system: En-1; test: En-1 mRNA expression by qPCR in primary ventral midbrain cultures; conditions: Mus musculus, 24 h, read-out: Fold Increase in En-1 Expression
[2] = test system: FoxA2; test: FoxA2 mRNA expression by qPCR in primary ventral midbrain cultures; conditions: Mus musculus, 24 h, read-out: Fold Increase in FoxA2 Expression

Nc1nc2ccc(OC(F)(F)F)cc2s1 [Riluzole]
fold induction at 10 µM [1]: 6.2 | fold induction at 10 µM [2]: 25.9
